Taken from: PubChem BioAssay AID504791 (Drosophila RNAi Screening Center, 2011)
Screen: 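Genes of the fly required for silencing by miRNA, siRNA or endo-siRNA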 (primary screen). System: Drosophila S2-derived reporter cells. Reagents: long dsRNA against Drosophila genes, about 150-250 ng dsRNA per well (siRNA assay); about 80-120 ng (miRNA assay). Duration: about 5 days (siRNA assay); about 4 days (miRNA assay). Conditions: copper sulfate induction of reporters: 25 µM (siRNA assay); 200 mM stated (miRNA assay), 1-2 days before reading. Measurement: 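Dual luciferase assay: Renilla to firefly signal ratio in each well, scaled to the mean ratio of its plate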. Direction: siRNA reporter hit score: higher = 3 marks a strong hit with raised ratio; -3 a strong hit with lowered ratio. Rule for the call: 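a well was a first-pass pick when its plate-scaled ratio rose above 1.5 (siRNA assay) or 1.6 (miRNA assay), or dropped below 0.6; a gene counted only if two separate dsRNAs agreed on retest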.
The deposit covers about 23,000 reagents; shown is an unselected part of those with a known target gene and a result. In the full data, 199 (0.86%) are marked active. 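Plate-scaled ratios behind the calls are not deposited; printed light signals are raw; many rows marked increased or decreased are still called inactive.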 Entries without a mark were called inactive. A plus sign joins genes that one reagent is predicted to hit.

predicted target	DRSC id	siRNA reporter hit score	stable siRNA reporter change	stable assay Renilla, run 1 (luminescence)	stable assay firefly, run 1 (luminescence)
BomT3 (GeneID 42598)	DRSC13537			5064	4.31e5
BomT3 (GeneID 42598)	DRSC15871			6714	3.33e5
CG32023 (GeneID 317827)	DRSC08946			3876	3.63e5
mTor (GeneID 47396)	DRSC02811			29568	3.19e5
CG7824 (GeneID 43530)	DRSC16321			5911	3.40e5
CG13244 (GeneID 34940)	DRSC21642			8538	4.14e5
CG6324 (GeneID 32481)	DRSC19985			5895	5.35e5
Ppi1 (GeneID 43581)	DRSC15421			8723	4.81e5
CG7407 (GeneID 40430)	DRSC11824			7863	3.70e5
CG12672 (GeneID 32781)	DRSC19482	3		5654	4.09e5
CG6294 + CG6299 + CG15642	DRSC19981			6564	4.49e5
CG12991 (GeneID 32734)	DRSC19511			5531	4.43e5
CG15239 (GeneID 31343)	DRSC17972			5694	4.37e5
hll (GeneID 34822)	DRSC01944			8468	1.83e6
Gr22a (GeneID 117500)	DRSC22283			8574	5.23e5
Mrgn1 (GeneID 32330)	DRSC20223			8573	6.03e5
Icmt (GeneID 39478)	DRSC09834			6075	3.61e5
Aven (GeneID 32215)	DRSC19693			5978	5.09e5
CG13217 (GeneID 36180)	DRSC06339			6151	4.69e5
CG30394 (GeneID 37437)	DRSC04074			7570	4.47e5
CG30394 (GeneID 37437)	DRSC04260			7380	4.37e5
Zmynd10 (GeneID 39481)	DRSC09826			5811	3.98e5
IKKbeta (GeneID 44432)	DRSC16714			8487	3.47e5
CG33136 (GeneID 318894)	DRSC05744			5155	3.31e5
CG8888 (GeneID 36293)	DRSC07294			9481	6.32e5
CG8888 (GeneID 36293)	DRSC07295			6724	4.70e5
cv-2 (GeneID 45280)	DRSC03861			5427	3.17e5
cv-2 (GeneID 45280)	DRSC04261			6519	3.70e5
CG31248 (GeneID 40853)	DRSC22722			4123	3.99e5
HP1c (GeneID 42696)	DRSC16166			4603	3.61e5
CG17784 (GeneID 42909)	DRSC15268			6808	4.15e5
CG9784 (GeneID 32629)	DRSC20210			5543	4.32e5
Gagr (GeneID 39824)	DRSC10441			7472	2.79e5
dpr17 (GeneID 41470)	DRSC12885			4704	3.42e5
dpr17 (GeneID 41470)	DRSC14957			4251	1.71e5
dpr17 (GeneID 41470)	DRSC14958			5566	3.87e5
mRpS23 (GeneID 318977)	DRSC01348			5090	5.00e5
GILT1 (GeneID 41650)	DRSC16565			8194	4.86e5
lncRNA:CR32368 (GeneID 317997)	DRSC08899			3651	3.59e5
CG10749 (GeneID 39470)	DRSC09798			6648	3.71e5
CG3281 (GeneID 41445)	DRSC15470			8485	4.33e5
CG11581 (GeneID 32362)	DRSC19407			5923	5.19e5
Su(var)2-HP2 (GeneID 36621)	DRSC06204			8968	4.65e5
Mgtor (GeneID 36264)	DRSC05958			6782	5.10e5
CycK (GeneID 49816)	DRSC03714	-3		8344	5.90e5
CG10041 (GeneID 41496)	DRSC14179			7962	5.07e5
kappaTry (GeneID 36215)	DRSC06146			6000	2.91e5
Idh (GeneID 44291)	DRSC10779			7615	4.79e5
Ir56d (GeneID 37252)	DRSC06590			6931	3.56e5
Myo61F (GeneID 38153)	DRSC22144			9395	5.58e5
CG5177 (GeneID 34017)	DRSC02824			10530	2.78e5
CG15452 (GeneID 33061)	DRSC20523			6211	4.44e5
Syn1 (GeneID 40424)	DRSC11803			7591	3.74e5
Syn1 (GeneID 40424)	DRSC11804			7483	3.83e5
pyd3 (GeneID 40916)	DRSC15459			4103	3.68e5
pyd3 (GeneID 40916)	DRSC21640			8070	4.01e5
CG13908 (retired record) (GeneID 38110)	DRSC08378			5950	4.36e5
Cyp12b2 (GeneID 37163)	DRSC07364			6300	3.17e5
mRpL35 (GeneID 42588)	DRSC14586			6154	3.20e5
CG11279 (GeneID 39486)	DRSC09837			5891	4.80e5
arg (GeneID 46717)	DRSC18737			7327	5.69e5
LeuRS-m (GeneID 38581)	DRSC08595			7278	4.25e5
aust (GeneID 34244)	DRSC02558			8654	4.13e5
CG2750 (GeneID 32179)	DRSC19867			5092	4.74e5
Mrm2 (GeneID 42359)	DRSC14310			7527	3.68e5
CG11815 (GeneID 38263)	DRSC08209			5191	4.12e5
mRpL19 (GeneID 41028)	DRSC16367			3712	3.51e5
mRpL19 (GeneID 41028)	DRSC21618			7829	4.46e5
CycY (GeneID 34593)	DRSC02420			29461	4.48e5
NaPi-T (GeneID 36651)	DRSC07476			6796	3.47e5
Nup44A (GeneID 35762)	DRSC07248			6198	3.59e5
CG15431 (GeneID 33646)	DRSC00446			7146	4.59e5
CG32523 (GeneID 318071)	DRSC20510			6226	3.74e5
Cox17 (GeneID 32439)	DRSC20145			4555	4.41e5
Cyt-b5 (GeneID 35688)	DRSC07392			7875	4.45e5
CG5707 (GeneID 48422)	DRSC08573			13374	4.97e5
CG32318 + Klp61F + Psf1	DRSC23255			5988	4.06e5
Usp32 (GeneID 40169)	DRSC10979			6610	3.79e5
p24-1 (GeneID 32140)	DRSC19827			5531	4.52e5
CG18746 (GeneID 59142)	DRSC15383			5886	4.45e5
esn (GeneID 53557)	DRSC05039			5343	4.23e5
esn (GeneID 53557)	DRSC07612			7079	3.64e5
CG7246 (GeneID 31833)	DRSC18422			4491	4.77e5
MED17 (GeneID 42175)	DRSC16889			5579	2.38e5
CG42355 (GeneID 317969)	DRSC07967			5468	4.27e5
CG42327 (GeneID 41401)	DRSC14936			5794	2.69e5
CG42327 (GeneID 41401)	DRSC14937			6946	4.21e5
CG42327 (GeneID 41401)	DRSC23337			6446	4.53e5
CG13056 (GeneID 50267)	DRSC09937			7130	3.44e5
CG13540 (GeneID 37686)	DRSC04182			6260	5.21e5
Ulp1 (GeneID 32910)	DRSC19339			6770	5.15e5
CG5515 (GeneID 42875)	DRSC15825			10826	4.29e5
CG6293 (GeneID 41259)	DRSC16011			7226	3.81e5
CBP (GeneID 31669)	DRSC17746			8871	5.60e5
viaf (GeneID 39364)	DRSC10326			6563	3.03e5
Mpc1 (GeneID 42268)	DRSC14770		reporter ratio lowered past the hit cutoff	8939	6.51e5
CG10428 (GeneID 35150)	DRSC02054			27543	1.47e6
Nlg3 (GeneID 40912)	DRSC12477			4319	3.49e5
Nlg3 (GeneID 40912)	DRSC12524			5974	4.20e5
Nlg3 (GeneID 40912)	DRSC12540			7262	3.51e5
Nlg3 (GeneID 40912)	DRSC12574			8565	4.85e5
N (GeneID 31293)	DRSC18685			5875	3.07e5
CG12012 (GeneID 38422)	DRSC08220			6520	3.99e5
Fatp3 (GeneID 37887)	DRSC04366			5723	3.40e5
CG9674 (GeneID 39878)	DRSC11088			8479	3.18e5
CG9674 (GeneID 39878)	DRSC11089			7583	2.73e5

7 entries from above, set out differently:
{"predicted target":"CG30394 (GeneID 37437)","DRSC id":"DRSC04260","stable assay Renilla, run 1 (luminescence)":7380,"stable assay firefly, run 1 (luminescence)":4.37e5}
{"predicted target":"Zmynd10 (GeneID 39481)","DRSC id":"DRSC09826","stable assay Renilla, run 1 (luminescence)":5811,"stable assay firefly, run 1 (luminescence)":3.98e5}
{"predicted target":"IKKbeta (GeneID 44432)","DRSC id":"DRSC16714","stable assay Renilla, run 1 (luminescence)":8487,"stable assay firefly, run 1 (luminescence)":3.47e5}
{"predicted target":"CG33136 (GeneID 318894)","DRSC id":"DRSC05744","stable assay Renilla, run 1 (luminescence)":5155,"stable assay firefly, run 1 (luminescence)":3.31e5}
{"predicted target":"CG8888 (GeneID 36293)","DRSC id":"DRSC07294","stable assay Renilla, run 1 (luminescence)":9481,"stable assay firefly, run 1 (luminescence)":6.32e5}
{"predicted target":"CG8888 (GeneID 36293)","DRSC id":"DRSC07295","stable assay Renilla, run 1 (luminescence)":6724,"stable assay firefly, run 1 (luminescence)":4.70e5}
{"predicted target":"cv-2 (GeneID 45280)","DRSC id":"DRSC03861","stable assay Renilla, run 1 (luminescence)":5427,"stable assay firefly, run 1 (luminescence)":3.17e5}
